Taken from: PubChem BioAssay AID504784 (Drosophila RNAi Screening Center, 2011)
Assay: 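Search for regulators of lipid droplet storage in oleate-fed fly cells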 (primary screen). Cell system: Drosophila Kc167 embryonic cells. Reagents: long dsRNA against Drosophila genes, about 250 ng dsRNA per well. Timing: 4 days. Challenge: cells fed 400 µM oleic acid bound to BSA. Measurement: 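Microscope images give a droplet-to-nucleus area ratio, taken as log and converted to a screen-wide B-score; higher values mean greater lipid storage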. Scale: droplet/nuclear area B-score: higher = more stored lipid (overstorage).
The screen tested about 17,000 reagents; shown is an unselected part of those that have a named target and a result. 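Each column is one replicate's B-score; the combined score over replicates was not deposited, so single values may mislead.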 Names joined by + are all predicted targets of the reagent.

| Gene | amplicon | droplet/nuclear area B-score, replicate 1 | droplet/nuclear area B-score, replicate 2 | droplet/nuclear area B-score, replicate 3 |
| --- | --- | --- | --- | --- |
| Smox (Smad on X) | DRSC18716 | 0.501 | 3.33 | – |
| ThrRS (Threonyl-tRNA synthetase) | DRSC02843 | 0.565 | -2.42 | – |
| CG18335 | DRSC06723 | -0.87 | 0.00673 | – |
| salr (spalt-related) | DRSC03607 | 1.82 | 1.01 | – |
| CG33003 | DRSC22419 | -0.499 | 0.919 | – |
| CG15219 | DRSC03715 | -0.417 | -1.17 | – |
| CG7488 | DRSC16250 | -1.37 | -0.509 | – |
| CG11168 | DRSC14292 | -0.758 | -0.0585 | – |
| deltaCOP (Coat Protein (coatomer) delta) | DRSC18760 | 2.49 | 10.7 | – |
| Sb (Stubble) | DRSC16851 | -1.99 | -0.383 | – |
| RpS20 (Ribosomal protein S20) | DRSC16836 | 2.12 | 4.3 | – |
| CG17321 | DRSC02598 | -0.285 | -1.8 | – |
| CG17991 | DRSC15294 | -0.14 | 0.453 | – |
| CG6195 | DRSC15989 | -0.721 | 0.322 | – |
| P5cr-2 (Pyrroline-5-carboxylate reductase-like 2) | DRSC15889 | -1.23 | -1.55 | – |
| Met (Methoprene-tolerant) | DRSC20284 | -0.189 | 1.29 | -0.215 |
| CG14491 | DRSC06462 | -0.993 | 1.76 | – |
| CG5866 | DRSC15900 | 0.234 | 0.787 | – |
| ago (archipelago) | DRSC08463 | 1.1 | 0.877 | – |
| PIG-K (Phosphatidylinositol glycan anchor biosynthesis class K) | DRSC18496 | 0.524 | -0.173 | – |
| CG40378 (retired record) | DRSC22174 | -1.06 | -0.478 | – |
| Hip1 (Huntingtin interacting protein 1) | DRSC09812 | 0.0535 | 0.537 | – |
| CG33111 | DRSC14208 | -1.75 | 0.0399 | – |
| CG33111 | DRSC14444 | -1.62 | 0.421 | – |
| beta3GalTII (beta-1,3-Galactosyltransferase II) | DRSC07253 | -2.77 | -0.501 | – |
| mahj (mahjong) | DRSC04053 | -0.396 | -0.799 | – |
| Rdh1 (Retinol dehydrogenase 1) | DRSC06812 | -1 | -0.669 | – |
| CG17652 | DRSC00511 | -0.597 | 2.51 | – |
| Tnpo (Transportin) | DRSC11309 | -5.33 | 0.0286 | – |
| arr (arrow) | DRSC07451 | 0.133 | 1.48 | – |
| CG10494 | DRSC04072 | 0.195 | 1.24 | – |
| run (runt) | DRSC20584 | -1.02 | -2.18 | – |
| run (runt) | DRSC21515 | 0.0252 | 0.248 | – |
| CG31538 | DRSC12059 | 0.925 | 2.65 | – |
| colt (congested-like trachea) | DRSC00808 | 1.24 | 0.0714 | – |
| CG13748 | DRSC06419 | -0.379 | 0.235 | – |
| CG14280 | DRSC14761 | -0.015 | 0.174 | – |
| CSN1b (COP9 signalosome subunit 1b) | DRSC11108 | -2.74 | -0.958 | -1.47 |
| CG12535 | DRSC17838 | -3.26 | -0.143 | – |
| CG12384 | DRSC06145 | 1.41 | -0.163 | 1.19 |
| Antp (Antennapedia) | DRSC12490 | -0.00648 | – | – |
| Antp (Antennapedia) | DRSC23104 | 1.02 | 0.159 | – |
| fwd (four wheel drive) | DRSC08580 | 0.791 | 2.75 | – |

Reprinted from the listing, 10 entries:
| Gene | amplicon | droplet/nuclear area B-score, replicate 1 | droplet/nuclear area B-score, replicate 2 | droplet/nuclear area B-score, replicate 3 |
| --- | --- | --- | --- | --- |
| salr (spalt-related) | DRSC03607 | 1.82 | 1.01 | – |
| CG33003 | DRSC22419 | -0.499 | 0.919 | – |
| CG15219 | DRSC03715 | -0.417 | -1.17 | – |
| CG7488 | DRSC16250 | -1.37 | -0.509 | – |
| CG11168 | DRSC14292 | -0.758 | -0.0585 | – |
| deltaCOP (Coat Protein (coatomer) delta) | DRSC18760 | 2.49 | 10.7 | – |
| Sb (Stubble) | DRSC16851 | -1.99 | -0.383 | – |
| RpS20 (Ribosomal protein S20) | DRSC16836 | 2.12 | 4.3 | – |
| CG17321 | DRSC02598 | -0.285 | -1.8 | – |
| CG17991 | DRSC15294 | -0.14 | 0.453 | – |

Additional records:
| Gene | amplicon | droplet/nuclear area B-score, replicate 1 | droplet/nuclear area B-score, replicate 2 | droplet/nuclear area B-score, replicate 3 |
| --- | --- | --- | --- | --- |
| CG13829 | DRSC14679 | 0.166 | 0.432 | – |
| Galphai (G protein alpha subunit i) | DRSC11168 | 0.369 | 1.94 | – |
| dbo (diablo) | DRSC11339 | -0.937 | -0.865 | – |
| unc-5 | DRSC05545 | -0.601 | -0.334 | -1.39 |
| unc-5 | DRSC07711 | -0.705 | 1.01 | – |
| unc-5 | DRSC07712 | -0.507 | -0.942 | – |
| CG18088 | DRSC02654 | 0.00603 | 0.197 | – |
| CG8565 | DRSC20112 | -0.34 | 3.25 | – |
| CG31743 + CG34313 | DRSC02781 | -0.971 | -3.01 | – |
| CG31743 + CG34313 | DRSC02782 | 0.917 | 0.605 | – |
| GstE14 (Glutathione S transferase E14) | DRSC06881 | 0.539 | -1.37 | – |
| Mfe2 (peroxisomal Multifunctional enzyme type 2) | DRSC19869 | -0.603 | 0.0105 | -0.42 |
| dpp (decapentaplegic) | DRSC00118 | 1.87 | -0.104 | – |
| dpp (decapentaplegic) | DRSC00121 | -0.0263 | -0.521 | – |
| dpp (decapentaplegic) | DRSC00813 | -1 | -1.22 | – |
| CG14000 + bchs | DRSC02333 | -0.0634 | 0.874 | – |
| px (plexus) | DRSC04708 | -0.397 | 1.01 | – |
| px (plexus) | DRSC23244 | -0.353 | 3.85 | – |
| CG13016 | DRSC06271 | 0.322 | 3.2 | – |
| CG11983 | DRSC14458 | 0.708 | 0.469 | – |
| asRNA:CR42743 + CG34162 | DRSC01190 | 0.00559 | -0.339 | – |
| CG7448 (retired record) | DRSC11828 | -0.791 | -1.9 | 1.17 |
| CG7448 (retired record) | DRSC22485 | -1.61 | 1.25 | – |
| CG5339 | DRSC04496 | -0.718 | -3.39 | – |
| CycY (Cyclin Y) | DRSC02420 | 0.654 | 0.702 | – |
| Damm (Death associated molecule related to Mch2 caspase) | DRSC07393 | 0.921 | 0.772 | – |
| RpL37A (Ribosomal protein L37A) | DRSC02899 | 0.507 | 0.986 | – |
| mod(mdg4) (modifier of mdg4) | DRSC13478 | 0.263 | 0.0143 | – |
| mod(mdg4) (modifier of mdg4) | DRSC15042 | 1.9 | 0.203 | – |
| mod(mdg4) (modifier of mdg4) | DRSC17000 | -0.298 | 0.128 | – |
| Ttd14 (TRPL translocation defect 14) | DRSC06632 | -3.27 | 1.48 | – |
| Ttd14 (TRPL translocation defect 14) | DRSC06942 | 1.56 | -0.188 | – |
| Spn (Spinophilin) | DRSC07986 | 0.159 | 0.248 | – |
| Spn (Spinophilin) | DRSC08490 | – | -1.56 | – |
| Spn (Spinophilin) | DRSC08491 | -0.436 | -2.29 | – |
| CG13075 | DRSC09958 | -0.0634 | -0.617 | – |
| Axn (Axin) | DRSC14120 | 3 | – | -0.617 |
| TotC (Turandot C) | DRSC13449 | -0.818 | 0.168 | – |
| CG13589 | DRSC04225 | 0.707 | 0.196 | – |
| Mst57Da (Male-specific RNA 57Da) | DRSC16744 | 6.07 | -2.04 | – |
| CG40439 | DRSC22707 | 0.301 | 0.323 | – |
| TSG101 (Tumor susceptibility gene 101) | DRSC11098 | 0.36 | 0.791 | – |
| CG9445 | DRSC05006 | -0.706 | -0.829 | – |
| CG12279 | DRSC14495 | 0.999 | -1.39 | – |
| CG5674 | DRSC02874 | 3.51 | 3.15 | – |
| CG5674 | DRSC23176 | -1.75 | -0.0777 | – |
| spdo (sanpodo) | DRSC13988 | -1.04 | -2.74 | – |
| CG16879 (retired record) | DRSC01918 | 0.0724 | -0.0543 | 2.65 |
| CG16879 (retired record) | DRSC22849 | 0.0934 | -0.396 | – |
| CG34457 | DRSC06924 | 0.267 | 0.54 | – |
| Dfd (Deformed) | DRSC12593 | 1.26 | 0.942 | – |
| GatB (Glutamyl-tRNA amidotransferase, subunit B) | DRSC15807 | 1.68 | -0.0149 | – |
| Hex-C (Hexokinase C) | DRSC07079 | 0.634 | -0.855 | – |
| CG31145 | DRSC14206 | -0.889 | -2.35 | – |
| CG31145 | DRSC14670 | -0.0401 | 0.458 | – |
| CG31145 | DRSC14671 | -0.635 | 0.72 | – |
| Gcna (Germ cell nuclear acidic peptidase) | DRSC18553 | 0.109 | -1.7 | – |
| MetRS-m (Methionyl-tRNA synthetase, mitochondrial) | DRSC16443 | 0.0332 | -1.41 | – |
| MetRS-m (Methionyl-tRNA synthetase, mitochondrial) | DRSC16515 | -2.02 | 0.896 | – |
| PGRP-SC1b (Peptidoglycan recognition protein SC1b) | DRSC07215 | 0.393 | 1.34 | – |
| zyd (zydeco) | DRSC20716 | 0.11 | -0.0023 | – |
| CG17097 | DRSC02569 | -1.08 | 1.32 | – |
